This list was built around the results that the source calls inconclusive (neither active nor inactive); the mix of calls is not that of the screen. Where the call is inconclusive, the potency comes from a doubtful curve fit. Calls of active or inactive are those of the source. Calls follow the shape of the dose curve; as a rule, active = well fitted cell-killing curve with a large enough effect; inconclusive = small, poorly fitted or top-dose-only effect, or effect the other way; inactive = no such curve, though single readings can be large or run the other way.
Assay: Quantitative High-Throughput drug screen in 47 multiple myeloma cell lines against the NCATS MIPE library collection: ARP1_JJKsccF8 cell viability assay (AID 1918928; also: nearly all actives have a fitted effect of over 40% in size)
Conditions: ARP1 myeloma cells viability, CellTiter-Glo ATP, 48 h; viability: at 45.8 µM (top of the series)
Source text: PI: Beverly A. Mock Ph.D.
Laboratory of Cancer Biology and Genetics,
Center for Cancer Research, National Cancer Institute,
National Institute of Health, Bethesda, Maryland
Drug resistance and disease progression are common in multiple myeloma (MM) patients, underscoring the need for new therapeutic combinations. […] We hypothesized that effective combinations would reduce MYC expression and enhance p16 activity. […] These preclinical data identify potentially useful drug combinations for evaluation in drug-resistant MM and reveal potential mechanisms of combined drug sensitivity.
Described herein is the primary MIPE qHTS used to cherrypick compounds. Validated compounds were then further tested for potential synergistic activiy.
[1] Peat TJ, Gaikwad SM, Dubois W, Gyabaah-Kessie N, Zhang S, Gorjifard S, Phyo Z, Andres M, Hughitt VK, Simpson RM, Miller MA, Girvin AT, Taylor A, Williams D, D'Antonio N, Zhang Y, Rajagopalan A, Flietner E, Wilson K, Zhang X, Shinn P, Klumpp-Thomas C, McKnight C, Itkin Z, Chen L, Kazandijian D, Zhang J, Michalowski AM, Simmons JK, Keats J, Thomas CJ, Mock BA. Drug combinations identified by high-throughput screening promote cell cycle transition and upregulate Smad pathways in myeloma. Cancer Lett. 2023 Aug 1;568:216284. doi: 10.1016/j.canlet.2023.216284. Epub 2023 Jun 24. PMID: 37356470; PMCID: PMC10408729.
SEQUENCE No. (e.g., 1, 2, 3, etc.); […] (e.g., Cells, Incubation, Reagent, etc.); VALUE and DESCRIPTION.
1; Cells; 5 uL; white, solid bottom 1536-well Greiner assay plate.
2; Compounds; 23 nL; Kalypsis pin tool (Wako USA) equipped with a 1536-well pin head to transfer to the assay plates.
3; Incubation; 48 hours; 37C incubation.
4; Reagent;5uL; CellTiter Glo (Promega).
5; Detector; 425V; Luminescence; Viewlux PerkinElmer.
NOTES (numbers refer to Sequence numbers above)
1. The cell-based screening methods employed in this study were like those previously published. Briefly, the corresponding myeloma cell lines were screened in 1,536-well plates with 500 cells, 5-uL per well for inhibition of cell viability (assessed by measuring ATP levels with CellTiterGlo).
2. NCATS MIPE 4.0 library of approved and investigational drugs were added using the Kalypsis pin tool. Wells treated with DMSO only for 100% viability and media only cells for 0% viability were used as controls.
3. The assay plates were covered and incubated for 48 hours in a 37C, 5% CO2 incubator with controlled humidity.
4. After 48 hours, CellTilter-GloTM luminescent substrate mix (Promega) reagent was added to the assay plate and plates we incubated for 5 min at room temperature.
5. Signal was measured as median relative luminescence units on a ViewLux (PerkinElmer) multiplate reader.
[1] Heske CM, Davis MI, Baumgart JT, Wilson K, Gormally MV, Chen L, Zhang X, Ceribelli M, Duveau DY, Guha R, Ferrer M, Arnaldez FI, Ji J, Tran HL, Zhang Y, Mendoza A, Helman LJ, Thomas CJ. Matrix Screen Identifies Synergistic Combination of PARP Inhibitors and Nicotinamide Phosphoribosyltransferase (NAMPT) Inhibitors in Ewing Sarcoma. Clin Cancer Res. 2017 Dec 1;23(23):7301-7311. doi: 10.1158/1078-0432.CCR-17-1121. Epub 2017 Sep 12. PMID: 28899971; PMCID: PMC6636827.
Potency is read from the fitted curve at half-maximal effect.

Question: With `COc1ccc2c(c1)c(C1=C(c3c[nH]c4ccccc34)C(=O)NC1=O)cn2CCCN(C)C` as the compound, how does the Potency read?
Answer: inconclusive: 37.2 µM [cytotoxic, single point]

Question: For `O=C1NC(O)CCN1[C@@H]1O[C@H](CO)[C@H](O)[C@H]1O` (stereo not given in full), which Potency is on record?
Answer: inconclusive: 4.69 µM [cytotoxic, full curve, poor fit]

Question: For `CC(C)C[C@H](NC(=O)[C@@H](NC(=O)c1cccc(-c2ccccc2)n1)[C@@H](C)O)B(O)O`, which Potency is on record?
Answer: active: 0.0166 µM

Question: With `COc1cc2c(c(OC)c1OC)-c1ccc(OC)c(=O)cc1[C@@H](NC(C)=O)CC2` as the compound, how does the Potency read?
Answer: inconclusive: 0.0166 µM [cytotoxic, partial curve, poor fit]

Question: For `CC(NCCc1ccc(O)cc1)C(O)c1ccc(O)cc1` (stereo not given), which Potency is on record?
Answer: inactive

Question: With `CCN1CCN(c2ccc(Nc3cc(N(C)C(=O)Nc4c(Cl)c(OC)cc(OC)c4Cl)ncn3)cc2)CC1` as the compound, how does the Potency read?
Answer: inactive

Question: For `N[C@@H](C(=O)N[C@@H]1C(=O)N2C(C(=O)O)=C(Cl)CS[C@H]12)c1ccccc1`, which Potency is on record?
Answer: inactive

Question: For `COc1ccc(-c2ccc3ncc4c(c3c2)n(-c2ccc(N3CCNCC3)c(C(F)(F)F)c2)c(=O)n4C)cn1`, which Potency is on record?
Answer: inconclusive: 0.0037 µM [cytotoxic, full curve]

Question: Which Potency does the source give for `Nc1ccn(C2CO[C@H](CO)O2)c(=O)n1` (stereo not given in full) here?
Answer: inconclusive: 1.87 µM [cytotoxic, partial curve, poor fit]

Question: With `CCN(CCO)CCCOc1ccc2c(Nc3cc(CC(=O)Nc4cccc(F)c4)[nH]n3)ncnc2c1` as the compound, how does the Potency read?
Answer: inconclusive: 0.0132 µM [cytotoxic, full curve, poor fit]

Question: With `CC=CC1=C(C(=O)O)N2C(=O)[C@H](NC(=O)[C@H](N)c3ccc(O)cc3)[C@@H]2SC1` as the compound, how does the Potency read?
Answer: inactive

Question: With `CO[C@@H]1C(N(C)C(=O)c2ccccc2)C[C@H]2O[C@]1(C)n1c3ccccc3c3c4c(c5c6ccccc6n2c5c31)C(=O)NC4=O` (stereo not given in full) as the compound, how does the Potency read?
Answer: inconclusive: 7.43 µM [cytotoxic, full curve]

Question: Which Potency does the source give for `Nc1cccc(S(=O)(=O)N2CCCN(S(=O)(=O)c3ccc4c(c3)OCCO4)CC2)c1` here?
Answer: inconclusive: 8.33 µM [cytotoxic, partial curve, poor fit]

Question: For `c1ccc([C@H]2CN3CCSC3=N2)cc1`, which Potency is on record?
Answer: inactive

Question: With `OC[C@H](Cc1ccccc1)Nc1nc(Oc2ccc3c(c2)CCC3)nc2c1ncn2Cc1ccc(-c2ccccc2)cc1` as the compound, how does the Potency read?
Answer: inconclusive: 9.35 µM [cytotoxic, full curve]

Question: Which Potency does the source give for `Cc1ccc(Nc2nccc(N(C)c3ccc4c(C)n(C)nc4c3)n2)cc1S(N)(=O)=O` here?
Answer: inconclusive: 29.6 µM [cytotoxic, single point]

Question: For `C[C@@H]1[C@H](C)CC[C@]2(C(=O)O)CC[C@]3(C)C(=CC[C@@H]4[C@@]5(C)C[C@@H](O)[C@H](O)[C@@](C)(CO)[C@H]5CC[C@]43C)[C@@H]12`, which Potency is on record?
Answer: inactive

Question: For `Nc1ccn([C@@H]2CS[C@H](CO)O2)c(=O)n1`, which Potency is on record?
Answer: inactive

Question: For `NCC(=O)Nc1ccc(-n2nc(C(F)(F)F)cc2-c2ccc3c(ccc4ccccc43)c2)cc1`, which Potency is on record?
Answer: active: 23.5 µM

Question: For `CC(C)(N)c1ccc(-c2nc3ccccc3nc2-c2ccccc2)cc1`, which Potency is on record?
Answer: inconclusive: 29.6 µM [cytotoxic, single point]

Question: With `CC(=O)N1CCN(c2ccc(OC[C@H]3CO[C@](Cn4ccnc4)(c4ccc(Cl)cc4Cl)O3)cc2)CC1` as the compound, how does the Potency read?
Answer: inconclusive: 20.9 µM [cytotoxic, partial curve]

Question: For `Cc1cc(C(C)Nc2ccccc2)c2nc(N3CCOCC3)cc(=O)n2c1` (stereo not given), which Potency is on record?
Answer: inconclusive: 29.6 µM [cytotoxic, partial curve, poor fit]

Question: With `COc1c(Cl)cc2c([nH]c3cnccc32)c1NC(=O)c1cccnc1C` as the compound, how does the Potency read?
Answer: inconclusive: 4.69 µM [cytotoxic, full curve, poor fit]

Question: For `COc1cc(C=CC(=O)O)ccc1O`, which Potency is on record?
Answer: inconclusive: 0.0019 µM [rising, full curve, poor fit]

Question: With `C1COC(NC(C2CC2)C2CC2)=N1` as the compound, how does the Potency read?
Answer: inconclusive: 0.0187 µM [rising, full curve]

Question: With `CCOc1ccccc1OCCNC(C)Cc1ccc(OC)c(S(N)(=O)=O)c1` (stereo not given) as the compound, how does the Potency read?
Answer: inactive

Question: For `COc1ccc2c(c1)c(CC(=O)O)c(C)n2C(=O)c1ccc(Cl)cc1`, which Potency is on record?
Answer: inactive

Question: Which Potency does the source give for `O=C(C[C@@H]1CC=CCCC(=O)O[C@H](c2ccccc2)CNC1=O)NCc1ccc(Cl)cc1` here?
Answer: inconclusive: 2.96 µM [cytotoxic, partial curve, poor fit]

Question: Which Potency does the source give for `C[C@@H](NCc1cc2ccccc2[nH]1)c1cccc2ccccc12` here?
Answer: inconclusive: 1.32 µM [rising, partial curve, poor fit]

Question: With `CCc1cc(C(C)=NOCc2ccc(C3CCCCC3)c(C(F)(F)F)c2)ccc1CN1CC(C(=O)O)C1` as the compound, how does the Potency read?
Answer: inconclusive: 37.2 µM [cytotoxic, single point]

Question: With `CC1=NN(c2ccccc2)C(=O)C1` as the compound, how does the Potency read?
Answer: inactive

Question: With `CN(C)c1ccccc1CN1CCCN(Cc2ccccc2N(C)C)C1c1ccncc1` as the compound, how does the Potency read?
Answer: inconclusive: 18.7 µM [cytotoxic, partial curve]

Question: With `CC[C@H]1OC(=O)[C@H](C)[C@@H](O[C@H]2C[C@@](C)(OC)[C@@H](O)[C@H](C)O2)[C@H](C)[C@@H](O[C@@H]2O[C@@H](C)C[C@H](N(C)C)[C@@H]2O)[C@](C)(O)C[C@@H](C)C(=O)[C@H](C)[C@@H](O)[C@]1(C)O` as the compound, how does the Potency read?
Answer: inactive

Question: Which Potency does the source give for `CCOC(=O)[C@H](CCc1ccccc1)N[C@H]1CCc2ccccc2N(CC(=O)O)C1=O` here?
Answer: inconclusive: 37.2 µM [cytotoxic, single point]

Question: For `C[C@H]1COC2=C1C(=O)C(=O)c1c2ccc2c1CCCC2(C)C`, which Potency is on record?
Answer: active: 16.6 µM

Question: With `OCCn1cc(-c2ccc3c(c2)CCC3=NO)c(-c2ccncc2)n1` as the compound, how does the Potency read?
Answer: inactive

Question: Which Potency does the source give for `COc1cc(OC)c(NC(=O)Nc2cc(C)on2)cc1Cl` here?
Answer: inactive

Question: For `COc1ccc(C(C)=O)c(O)c1`, which Potency is on record?
Answer: inactive

Question: For `CN(C)c1nc(Cc2ccc(NC(=O)c3ccc4ccccc4c3)cc2)nc(Cl)c1CC(=O)O`, which Potency is on record?
Answer: inactive

Question: For `CCCc1nc(C(C)(C)O)c(C(=O)O)n1Cc1ccc(-c2ccccc2-c2nn[nH]n2)cc1`, which Potency is on record?
Answer: inactive

— PubChem BioAssay (NCATS)
